Experimental data as given in PubChem BioAssay AID1347075 (National Center for Advancing Translational Sciences (NCATS), 2019).
Screen size: about 400,000 compounds; about 5,500 (1.4%) were called active. Inconclusive results, whose numbers are uncertain, are shown with a selection of clear calls. Calls come from the whole dose curve; as a rule, active = well fitted cell-killing curve with a large enough effect; inconclusive = small, poorly fitted or top-dose-only effect, or effect the other way; inactive = flat fitted curve, though single readings scatter. Where the call is inconclusive, the potency comes from a doubtful curve fit.

Test: qHTS assay for MDR1-selective chemotherapeutics: Primary screen using the parental adenocarcinoma cell KB-3-1; note: nearly all actives have a fitted effect of over 60% in size
Conditions: KB-3-1 viability, CellTiter-Glo ATP luminescence, 72 h; activity change, negative = cytotoxic: at 46.1 µM (top of the series)
Outline: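 Parental KB-3-1 viability, qHTS format: 72 h compound exposure, 37 °C; CellTiter-Glo; media-only wells and DMSO plates as controls; concentration-effect fits on corrected data.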
% is set by controls: 0 for no effect and ±100 for the full control effect; potency is the fitted concentration of half-maximal effect.

SMILES	Potency	activity change, negative = cytotoxic
COc1cccc(O)c1CN1CCC(C(=O)Nc2ccc(-c3cccc(C)c3)cc2)CC1	active: 18.4 µM	
COc1cccc(CNc2nc3ccccc3n2CCN2CCCCC2)c1	inconclusive: 29.1 µM [cytotoxic, single point]	
NC(=O)c1nnn(-c2ccccc2)c1N	inactive	
COc1ccc(C(=O)N2CCC(C(=O)Nc3ccc(Cl)cc3)CC2)cc1	inconclusive: 29.1 µM [cytotoxic, single point]	
COCC(=O)Nc1c(C(=O)Nc2ccc3c(c2)OCCO3)oc2ccccc12	inconclusive: 2.91 µM [rising, full curve, poor fit]	
CCOc1ccc(S(=O)(=O)N(CC(=O)NCc2ccccc2OC)c2ccccc2)cc1	inconclusive: 29.1 µM [cytotoxic, single point]	
CCCCN(CC)CCCNC(=O)Cn1ncc2c3ccccc3n(C)c2c1=O	inconclusive: 0.0073 µM [cytotoxic, full curve, poor fit]	
CC(OC(=O)/C=C/c1ccc2ccccc2n1)C(=O)Nc1ccc(S(N)(=O)=O)cc1 (stereo unspecified)	inactive	
CC(CS(=O)(=O)c1ccc2c(c1)NC(=O)CS2)C(=O)N1CCN(c2cccc(Cl)c2)CC1 (stereo unspecified)	active: 23.1 µM	
CCN(CC)c1nc(NNC(=O)c2ccccc2)nc(N(CC)CC)n1	inactive	
Oc1ccc(/C=N/NC(=S)N/N=C/c2ccc(O)cc2)cc1	inactive	
CCCCN(C(=O)c1ccc(C#N)cc1)c1c(N)n(CCC)c(=O)[nH]c1=O	inconclusive: 5.17 µM [rising, full curve]	
CCOC(=O)C1(CCOc2ccccc2)CCN(Cc2ccc(C#CCCO)cc2)CC1	inconclusive: 18.4 µM [cytotoxic, single point]	
COc1cc(/C=C/C(=O)NC(C)C2CC3CCC2C3)cc(OC)c1OC (stereo unspecified)	inconclusive: 23.1 µM [rising, single point]	
O=C(c1ccccc1)C(CN1CCCCC1)c1ccccc1 (stereo unspecified)	active: 5.8 µM	
O=C1COc2ccc(S(=O)(=O)CCC(=O)N3CCN(c4ccccc4)CC3)cc2N1	inconclusive: 29.1 µM [rising, single point]	
CCOc1ccc(NC(=O)COc2ccc(C(=O)NC(C)c3ccc(S(N)(=O)=O)cc3)cc2OC)cc1 (stereo unspecified)	inconclusive: 11.6 µM [rising, partial curve, poor fit]	
CC(C)CNC(=O)c1nn(Cc2ccccc2)c(=O)c2ccccc12	inactive	
COc1cc(C(=O)OCCNC(=O)c2ccccc2)cc(OC)c1OC	inconclusive: 18.4 µM [cytotoxic, single point]	
C[C@H](c1ccccc1)N1C[C@H](COCc2ccccc2)Oc2cc(N3CC[C@H](O)C3)ccc2S1(=O)=O	inconclusive: 29.1 µM [cytotoxic, single point]	
Cc1ccn2c(NC(=O)c3ccccc3)c(-c3cccs3)nc2c1	inactive	
COc1ccc(Oc2ccc(/C=C/C(=O)c3cccc(OC)c3)cc2[N+](=O)[O-])cc1	inconclusive: 29.1 µM [cytotoxic, single point]	
N=c1c(C(=O)NCC2CCCO2)cc2c(=O)n3ccccc3nc2n1Cc1ccc(Cl)cc1 (stereo unspecified)	inconclusive: 29.1 µM [cytotoxic, single point]	
Oc1ccc(/C=N/NC(=S)N2CCOCC2)cc1	inactive	

SMILES	Potency	activity change, negative = cytotoxic
CC(=O)c1ccc(NC(=O)c2ccc(-c3ccc(Cl)cc3)o2)cc1	inconclusive: 32.6 µM [cytotoxic, single point]	
COC(=O)c1ccc(N=C2S/C(=C\c3cc(C)n(-c4cccnc4)c3C)C(=O)N2C)cc1	inconclusive: 29.1 µM [cytotoxic, single point]	
CCN(CC)CCNC(=O)c1ccc2nc(CCc3ccccc3)oc2c1	inactive	
CC(=O)c1ccc(NC(=O)c2ccc(COc3ccccc3[N+](=O)[O-])o2)cc1	inconclusive: 29.1 µM [cytotoxic, single point]	
COc1ccccc1/C=C/C(=O)c1cc(Br)ccc1OC(=O)c1ccco1	inconclusive: 18.4 µM [cytotoxic, single point]	
COc1ccc(N2CC(C(=O)N3CCN(Cc4ccc5c(c4)OCO5)CC3)CC2=O)cc1 (stereo unspecified)	inactive	
Cc1cc(C)nc(SCc2ccc(C(=O)N/N=C/c3cccc(O)c3O)cc2)n1	inconclusive: 3.66 µM [cytotoxic, full curve, poor fit]	
CC1CCN(c2c(NCc3ccc(C(=O)N4c5ccccc5CC4C)cc3)c(=O)c2=O)CC1 (stereo unspecified)	inconclusive: 20.6 µM [cytotoxic, single point]	
COC(=O)c1ccccc1NC(=S)NC(=O)c1ccc2ccccc2c1	inconclusive: 29.1 µM [rising, single point]	
N#Cc1ccsc1NC(=O)CSc1nncs1	inactive	
Cc1ccc(-c2cc(NC=O)c3ncc(-c4cccc(C(=O)N(C)C)c4)n3c2)cc1	inconclusive: 20.6 µM [cytotoxic, single point]	
COc1ccccc1C=Cc1ccnc2ccccc12	inconclusive: 20.6 µM [cytotoxic, single point]	
Cc1cccc(OCc2nnc(SCC(=O)N3c4ccccc4CC3C)n2C)c1C (stereo unspecified)	inconclusive: 35.5 µM [cytotoxic, single point]	
COc1ccc(NC(=O)c2ccccc2-c2ccc(C(F)(F)F)cc2)cc1S(=O)(=O)N1CCOCC1	inconclusive: 29.1 µM [cytotoxic, single point]	
C=CCn1c(SCc2c(C)noc2C)nc2cc(C(=O)O)ccc2c1=O	inconclusive: 20.6 µM [cytotoxic, single point]	
CCOC(=O)C[C@@H]1OC[C@H](C)N1S(=O)(=O)c1ccc(C)cc1	inactive	
COc1ccc(NC(=S)NC23CC4CC(CC(C4)C2)C3)cc1OC	inconclusive: 29.1 µM [rising, single point]	
CCOC(=O)C1=C(C)NC2=C(C(=O)C(C(=O)OCC)C(c3ccccc3OC)C2)C1c1ccccn1 (stereo unspecified)	inconclusive: 16.4 µM [cytotoxic, partial curve, poor fit]	
NC(N)=NN=C(c1ccc(F)cc1)c1ccc(C(F)(F)F)cc1	active: 3.66 µM	
COC(=O)c1ccccc1NC(=O)N1c2ccccc2CC1C (stereo unspecified)	inactive	
Cc1c(C(=O)Nc2ccccc2F)sc2ncnc(N(C)C3CCCCC3)c12	inconclusive: 13 µM [cytotoxic, partial curve]	
COc1cccc(NC(=S)N(Cc2ccc(C)cc2)Cc2ccccn2)c1	inconclusive: 29.1 µM [cytotoxic, single point]	
Cc1nc2cc(F)ccc2n1C1CCN(C(=O)c2c(F)cccc2F)CC1	inconclusive: 13 µM [cytotoxic, single point]	
COc1ccc(/C=N/NC(=O)c2c(C)n(C)c3ccc(OC)cc23)c(OC)c1	inconclusive: 5.8 µM [rising, full curve, poor fit]	

SMILES	Potency	activity change, negative = cytotoxic
O=C(c1cc(S(=O)(=O)N2CCN(c3ccccc3)CC2)ccc1Cl)N1CCCC(C(F)(F)F)C1 (stereo unspecified)	inconclusive: 29.1 µM [cytotoxic, single point]	
COc1cc(/C=C/c2ccc3cccc(O)c3n2)cc(Cl)c1OC	inconclusive: 3.26 µM [cytotoxic, full curve, poor fit]	
Cc1ccc(NC(=O)c2cc3ccccc3cc2O)cc1	inconclusive: 10.3 µM [cytotoxic, partial curve, poor fit]	
CCC(OC(=O)c1nsc(Cl)c1Cl)C(=O)NCCc1ccccc1 (stereo unspecified)	inconclusive: 20.6 µM [rising, partial curve]	
O=C(CSc1nc2c(oc3ccccc32)c(=O)n1Cc1ccco1)Nc1ccccc1Cl	inactive	
CCN(Cc1ccccc1)S(=O)(=O)c1ccc(C(=O)N(CCCN(C)C)c2nc3cc(C)cc(C)c3s2)cc1	inconclusive: 20.6 µM [cytotoxic, single point]	
COc1ccc(C2=NOC(Cn3nc(C(=O)NCc4cccc(C(F)(F)F)c4)cc3-c3ccccc3)C2)cc1 (stereo unspecified)	inactive	
CCOC(=O)C(C)Sc1nnc(-c2ccccc2O)n1-c1ccc(C)cc1 (stereo unspecified)	inactive	
CN(C)CCN1C(=O)c2cccc3cc([N+](=O)[O-])cc(c23)C1=O	active: 8.2 µM	
C/C(=N\NC(=O)c1cc2ccccc2cc1O)c1ccc2c(c1)OCO2		inconclusive: -75.6%
COc1ccc(/C=N/NC(=O)CCn2c3ccccc3c3ccccc32)cc1OC	inactive	
CCC(=O)Nc1nnc(-c2ccc(OC)cc2)o1	inactive	
COc1ccc2c(c1)Cc1c-2cc(Br)c(N)c1Br	inactive	
COc1ccccc1N1CCN(c2ccc(-c3ccccc3)nn2)CC1	active: 2.06 µM	
COc1ccc(C2=NCC(CSc3nnnn3C)S2)cc1 (stereo unspecified)	inconclusive: 18.4 µM [cytotoxic, single point]	
CC(C)(CO)CNc1ccn2nccc2n1	inconclusive: 20.6 µM [cytotoxic, single point]	
Cc1ccc(Cn2c(=N)n(CC(O)c3ccco3)c3ccccc32)cc1 (stereo unspecified)	inconclusive: 32.6 µM [cytotoxic, single point]	
COCc1c(CCl)cnc(C)c1O	inconclusive: 23.1 µM [cytotoxic, partial curve, poor fit]	
Cc1cc(C)cc(OCc2nc3ncc(Br)cc3[nH]2)c1	active: 1.3 µM	
Oc1cccc2cc(Nc3ccccc3)cnc12	inconclusive: 3.26 µM [cytotoxic, partial curve, poor fit]	
CCC(=O)N1CCN(c2ccc(NC(=O)c3ccco3)cc2Cl)CC1	inactive	
O=C(Nc1cc(F)ccc1F)C1CCCO1 (stereo unspecified)		inconclusive: 5.24%
COc1ccc(-c2nc3ccc(Br)cn3c2Cc2ccccc2)cc1OC	inconclusive: 29.1 µM [cytotoxic, single point]	

Pulled by structure from the entries so far:
SMILES	Potency	activity change, negative = cytotoxic
CCOC(=O)C(C)Sc1nnc(-c2ccccc2O)n1-c1ccc(C)cc1 (stereo unspecified)	inactive	
COc1ccccc1N1CCN(c2ccc(-c3ccccc3)nn2)CC1	active: 2.06 µM	
CCN(Cc1ccccc1)S(=O)(=O)c1ccc(C(=O)N(CCCN(C)C)c2nc3cc(C)cc(C)c3s2)cc1	inconclusive: 20.6 µM [cytotoxic, single point]	
CN(C)CCN1C(=O)c2cccc3cc([N+](=O)[O-])cc(c23)C1=O	active: 8.2 µM	
Cc1ccc(Cn2c(=N)n(CC(O)c3ccco3)c3ccccc32)cc1 (stereo unspecified)	inconclusive: 32.6 µM [cytotoxic, single point]	
CCC(OC(=O)c1nsc(Cl)c1Cl)C(=O)NCCc1ccccc1 (stereo unspecified)	inconclusive: 20.6 µM [rising, partial curve]	
